In patent US6261997A, “Slow release formulations of pesticides” (Yissum Research Development Company of the Hebrew …, priority 1996, dated 2001):
At least one compound was matched to its structure with a doubt left.

System: green foxtail
Test: Laboratory soil column leaching bioassay (growth inhibition of sensitive test plants at soil depths)
Type: in vivo, green foxtail (setaria); wheat also sown
Settings: laboratory and field experiments
Procedure: 1. Under laboratory and field conditions, the following bioassay column technique was used to evaluate the leaching of the herbicide using sensitive plants to the given herbicide. Briefly, the experiments have used 100×100×200 mm tin columns filled with soil. The column surface is sprayed with either the commercial formulation of the herbicide or with the organoclay formulated herbicide. The herbicide is added at the same amounts as in the field applications, i.e., 200 g of the active ingredient per 1000 m^2. Then the columns are irrigated with 50 m^3 /[…]. The water is added throughout 5 hours. The columns are left for 24 hr and then sliced along their lengths into two parts (right and left). Two plants, setaria and wheat were sown in each part in two rows and irrigated with water. The height and the weight of the plants 7 days after emergence are used as an indicator of the presence of herbicide at different depths in the soil column.
Alachlor was applied at 2.0 kg/ha followed by irrigation of 500 m^3 /ha. bars indicate standard errors.
Green foxtail growth was used to estimate the presence of matolachlor. Metolachlor formulations were commercial formulation (comm.); metolachlor on clay alone (Mont); metolachlor on clay pre-absorbed with BTMA 0.5 mole/kg clay. The clay based formulations contained 13% metolachlor. […] Bars indicate standard errors. […]

C[N+](C)(C)c1ccccc1 [PTMA, phenyltrimethyl ammonium]
inhibition of movement / leaching of the herbicide in the soil profile: significant inhibition of herbicide leaching has been achieved
